# ± gives the standard deviation. The entries are a selection whose mix differs from that of the whole data set. The uncertainty is large for many entries.
# Test system: MILI (PIWIL2) piRISC loaded with L1MC piRNA (26 nt)
# Experiment: pre-steady-state target cleavage rate (min^-1); MIWI and MILI are mouse PIWI proteins and EfPiwi is from a freshwater sponge; tags in brackets are library labels; higher = faster piRNA-guided slicing of the target
# Conditions: guide: L1MC piRNA 5'p-UAACUAAAUACUAUGCAAGCUGUAGG; auxiliary factor: 500 nM mouse GTSF1
# Description: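 Cleave-'n-Seq: a library of target RNAs (target site embedded in constant flanks, ACAGCATTCCGCGTTAGTGATATCCG... 5' flank; DNA-blocked outside the site) at 0.1 nM was incubated with 1 nM active mouse MILI or MIWI piRISC (synthetic 5'-monophosphorylated piRNA guide) with or without 500 nM mouse GTSF1 at 33 °C for 1 min to 16 h. Uncleaved targets were sequenced and normalised to non-target controls, and the pooled three trials were fitted to a burst-and-steady-state model to give the pre-steady-state cleavage rate (min^-1; k3 is constrained to at most 1e-4). Sequence is the target site only; target names encode pairing extent (gX:gY) and contiguous / 1-mismatch / 2-mismatch / bulge geometry. Fits with R² ≤ 0 are excluded.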
row,Sequence,pre-steady-state target cleavage rate
1,UCCUGGAUGUGCUUGGAUAGUUUUUAGUUA,0.00761 ± 0.0046
2,UCCUGCUACAGCUUGCAUAGUAUUUAGUAUA,0.292 ± 0.044
3,UCCUGGAUGUCGUUGCAUGUAUUUAGUUA,0.00113 ± 0.0078
4,UCCUCCUACAGCUUGCAUAGUAAAUAGAAA,0.0692 ± 0.02
5,UCCUGGAUGUCGUUGGAUAGUAUUUAGUUA,0.0108 ± 0.0042
6,UCCUGGUACAGCUUGCAGAGUAUUUAGUUA,0.121 ± 0.026
7,UCCUGGAUGUCCUUGCAUGUAUUUAGUUA,0.0026 ± 0.0041
8,UCCUGGAUGUCGUUGGUUAGUAUUUAGUUA,0.00204 ± 0.0062
9,UCCUGGAUGUCGAACGUAUCUAUUUAUUUA,0.000298 ± 0.01
10,UCCUGGAACAGCUUGCAUAGAUUUUACAAA,0.00713 ± 0.0045
11,UCCUGGAUGUCGAACGUAAGUAUUUUCAUA,0.000234 ± 0.035
12,UCCUGGAUCAGCUUGCUUAGUAUUUAGUUA,0.248 ± 0.019
13,UCCUGGAUCAGCUUGCAUACAUUUUAGAAA,0.00125 ± 0.0083
14,UCCUGGAUGUGCUUGCAUAGUAUUUUCUAA,0.00295 ± 0.0042

# Same assay, conditions: guide: L1MC piRNA 5'p-UAACUAAAUACUAUGCAAGCUGUAGG; auxiliary factor: none (no GTSF1)
row,Sequence,pre-steady-state target cleavage rate
1,UCCUGGAUGUGCUUGGAUAGUUUUUAGUUA,0.00414 ± 0.0024
2,UCCUGGUACAGCUUGGAUAGAAUUUAGUUA,0.00256 ± 0.0041
3,UCCUGCUACAGCUUGCAUACGUAUUUAGUUA,0.00103 ± 0.0078
4,UCCUGCUACAGCUUGCAUAGUAUUUAGUAUA,0.00202 ± 0.0042
5,UCCUGGAUGUCCUUGCAUAGUAUUAUAGUUA,0.00213 ± 0.0052
6,UCCUGGAUGUCGUUGCAUGUAUUUAGUUA,0.00127 ± 0.0048
7,UCCUCCUACAGCUUGCAUAGUAAAUAGAAA,0.00115 ± 0.0054
8,UCCUGGAUGUCGUUGGAUAGUAUUUAGUUA,0.000938 ± 0.0064
9,UCCUGGAUGUCCUUGCAUAGAAUUUAGUUA,0.00208 ± 0.0039
10,UCCUGGUACAGCUUGCAGAGUAUUUAGUUA,0.00836 ± 0.0028
11,UCCUGGAUGUCCUUGCAUGUAUUUAGUUA,0.00112 ± 0.0053
12,UCCUGGAUGUCGUUGGUUAGUAUUUAGUUA,0.000672 ± 0.0093
13,UCCUGGAUGAGCUUGCAUAGUAAUUAGAUA,0.00109 ± 0.0063
14,UCCUGGAUGUCGAUGCAUAGUUUUUAGUAA,0.00239 ± 0.0028
15,UCCUGGAACAGCUUGCAUAGAUUUUACAAA,0.000556 ± 0.0076
16,UCCUGGAUGUCGAACGUAAGUAUUUUCAUA,0.000305 ± 0.014
17,UCCUGGAUCAGCUUGCAUUCAUAAAUCAAA [g13:g22:cont:t1A],0.000241 ± 0.025
18,UCCUGGAUGUGCUUGGAUACUAUUUAGUUA,0.00169 ± 0.0047
19,UCCUGGAUCAGCUUGCUUAGUAUUUAGUUA,0.0092 ± 0.0031
20,UCCUGGAUGUCGAACCAUUGUAUAUAGUUA,0.000404 ± 0.015
21,UCCUCCUACUCCUUGCAUAGUAUUUAGAAA,0.00117 ± 0.004
22,UCCUGGUACUGCUUGCAUAGUAUUUAGAUA,0.00261 ± 0.0036
23,UCCUGGAUGUCGAACGUAAGUAUUUAUGUUA,0.000274 ± 0.015
24,UCCUGGAUGUGCUUGCAUAGUAUUUUCUAA,0.00066 ± 0.011
25,UCCUGGAUGUCGUUGCAUACUAUUUACUUA,0.000219 ± 0.027

# Reference: the supplement of paper PMC10338343
